The series concerns the target T1, MdWRKY40 (Malus domestica) (UniProt A0A7S5ATZ6).
T1 sequence (looked up, limits assumed): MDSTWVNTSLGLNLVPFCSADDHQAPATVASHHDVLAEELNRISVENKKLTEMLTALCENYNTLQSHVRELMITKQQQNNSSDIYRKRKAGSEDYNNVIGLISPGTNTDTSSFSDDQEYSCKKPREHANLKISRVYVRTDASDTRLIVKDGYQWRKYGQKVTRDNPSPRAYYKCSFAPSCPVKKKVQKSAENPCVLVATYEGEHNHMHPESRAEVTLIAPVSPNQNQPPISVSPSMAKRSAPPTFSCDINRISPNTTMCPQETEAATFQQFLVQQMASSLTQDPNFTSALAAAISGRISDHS
The series is described as follows: EMSA. Particulars: EMSA: binding buffer not specified, 24 °C, 30 min; salt and pH not stated; recombinant protein; protein details: His tag, pET-32a(+) fusion. (In general: Mobility shift assays separate free from complexed probe on a gel.)

The exact form of at least one protein or probe is not confirmed. A negative result means that nothing was seen under these conditions. Protein sequences can lack the tags named with them.

For “GATTCCGTCCGACCTACTATTTGACCCTCCGACCTTTTCCAAGTCA / TGACTTGGAAAGGTCGGAGGGTCAAATAGTAGGTCGGACGGAATC [proMdGLU W-box 1 probe]”, the binding result is “no binding”.

For the origin of these results see publication PMC9344649, “Involvement of MdWRKY40 in the defense of mycorrhizal apple against fusarium solani”.
